Results are given in words; binding and its absence hold for the method and conditions named. Binding seen in cells or lysates may run through a third protein. For some assays here: A result given as binding can be weak or reduced; the word gives no strength.
What was measured:
IRE1α^ΔKR-Flag (human) = experiment: co-IP; lysates of transfected HEK293T or U2OS cells (24 h) in NETN buffer (20 mM Tris-HCl pH 8.0, 100 mM NaCl, 1 mM EDTA, 0.5% NP-40), IP with anti-Flag (M2) magnetic beads or the indicated antibodies, western blot; Fig. 3G two-way
IRE1α^ΔR-Flag (human) = experiment: as above

binding (IRE1α^ΔKR-Flag (human)): no binding | binding (IRE1α^ΔR-Flag (human)): binds
B1: UPF3B, endogenous (protein, UniProt Q9BZI7 1-483)
chain: MKEEKEHRPKEKRVTLLTPAGATGSGGGTSGDSSKGEDKQDRNKEKKEALSKVVIRRLPPTLTKEQLQEHLQPMPEHDYFEFFSNDTSLYPHMYARAYINFKNQEDIILFRDRFDGYVFLDNKGQEYPAIVEFAPFQKAAKKKTKKRDTKVGTIDDDPEYRKFLESYATDNEKMTSTPETLLEEIEAKNRELIAKKTTPLLSFLKNKQRMREEKREERRRREIERKRQREEERRKWKEEEKRKRKDIEKLKKIDRIPERDKLKDEPKIKVHRFLLQAVNQKNLLKKPEKGDEKELDKREKAKKLDKENLSDERASGQSCTLPKRSDSELKDEKPKRPEDESGRDYREREREYERDQERILRERERLKRQEEERRRQKERYEKEKTFKRKEEEMKKEKDTLRDKGKKAESTESIGSSEKTEKKEEVVKRDRIRNKDRPAMQLYQPGARSRNRLCPPDDSTKSGDSAAERKQESGISHRKEGGEE

Source: PMC11322666
